61 compounds from PubChem BioAssay AID493014 (National Center for Advancing Translational Sciences (NCATS), 2011) can be followed below.

The structures appear in SMILES notation. Some of the results follow. The main result of the screen is listed elsewhere. These columns were measured beside it and carry no call. Compounds called inactive in the main read-out are mostly missing here. The note in brackets gives the kind of curve behind each potency; many fits are weak.

A short description of the assay: qHTS Assay to Find Inhibitors of Chronic Active B-Cell Receptor Signaling. The note with it: ABC-DLBCL IkBa-CBG/CBR reporter, luminescence ratio (green luciferase fused to IkBa over red control in TMD8 lymphoma cells), 4 h. In outline:
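Compounds up to 46 uM were incubated four hours with TMD8 cells whose green CBG68 luciferase is fused to IkappaBalpha; red CBR luminescence normalised the signal, and concentration-effect curves were fitted to fusion, red and ratio data.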

Setting [1] is: measured here: CBR red luminescence, cell number.
Where [2] appears, read: measured here: IkBa-CBG green luminescence.

Turning to `Cn1c(Oc2ccccc2)c(C=O)c2ccccc21`, the AC50 – broadly, the midpoint of the concentration-response curve, whichever way the signal moves – under setting [1] is 5.01 µM [rising, full curve].
Take `CCOc1ccc2[nH]c(C(=O)N/N=C/c3ccccc3OC)cc2c1`: the concentration at half-maximal activity (AC50) is, setting by setting: under setting [1], 35.5 µM [rising, single point]; under setting [2], 15.8 µM [falling, partial curve, poor fit].
As for `CCOc1cc(NC(=S)Nc2ccccc2OC)c(OCC)cc1NC(=O)c1ccccc1C`, the AC50 under setting [1] was 15.8 µM [falling, partial curve].
On to `CCOc1ccc(OCC)c(S(=O)(=O)n2cc(C)nc2CC)c1`, for which the AC50 under setting [1] is 10 µM [rising, partial curve].
With `CC(C)(C)NCC(O)CON=C1c2ccccc2-c2ccccc21` (configuration not stated), under setting [1], the AC50 was 22.4 µM [falling, single point].
With `CC12OC1C1(O)CCCC1=CC2=O` (configuration not stated), under setting [1], the AC50 is 35.5 µM [falling, single point].
As to `Cc1ccc(S(C)(=O)=O)cc1C(=O)NC(C)C1CC2CCC1C2` (configuration not stated), the AC50 under setting [1] is 3.16 µM [rising, partial curve, poor fit].
For `COc1ccc(Nc2nc(Cl)nc(N3CCN(c4ccc(OC)cc4)CC3)n2)cc1`, the AC50 under setting [1] is 0.355 µM [rising, full curve, poor fit].
On the same count and under the same terms, next, `CCOc1ccc(N(CC(=O)Nc2ccc(OC)cc2)C2=NC3CS(=O)(=O)CC3S2)cc1` (configuration not stated): 3.98 µM [falling, single point].
`Cc1nn(C)c(NC(=O)c2ccc(Cl)cc2)c1Cl`: the AC50 under setting [1] is 3.98 µM [rising, partial curve, poor fit].
For `Cc1cc(C(=O)CSc2nnnn2-c2ccc(O)cc2)c(C)n1Cc1ccc2c(c1)OCO2`, the AC50 under setting [1] was 29.1 µM [falling, single point].
For the compound `Cc1ccccc1-c1ccc(C(=O)Nc2cccc(F)c2)o1`, under setting [1], the AC50 is 23.1 µM [falling, single point].
For the compound `CCc1nc2scc(-c3ccccc3)c2c(=O)n1N`, under setting [1], the AC50 was 2.06 µM [rising, partial curve, poor fit].
Same read-out and setting: next, `O=C(c1ccncc1)c1ccc([N+](=O)[O-])cc1`: 35.5 µM [rising, single point].
Consider `Cc1cccc(N2C(=O)SC(SC(=Nc3ccccc3)Nc3ccccc3)C2=O)c1` (configuration not stated), for which the AC50 under setting [1] is 25.9 µM [falling, partial curve].
For `O=C(NCc1ccccc1)C(c1ccccn1)N(C(=O)c1csnn1)c1ccccc1F` (configuration not stated), the AC50 under setting [1] is 10 µM [falling, partial curve, poor fit].
As for `O=C(C1COc2ccccc2O1)N1CCN(c2ccccn2)CC1` (configuration not stated), the AC50 under setting [1] is 9.2 µM [rising, partial curve, poor fit].
Consider `COc1ccc(C)cc1Nc1ncnc2c1c(-c1ccccc1)cn2-c1ccc(C)cc1`, for which, under setting [1], the AC50 is 20 µM [rising, single point].
In the case of `COc1ccc(-c2noc(-c3ccccc3F)n2)cc1`, the AC50 under setting [1] was 11.6 µM [falling, single point].
With `O=C(NCCN1CCN(c2ccccc2)CC1)c1cccn2c(=O)c3cc(Cl)ccc3nc12`, the AC50 under setting [1] is 20.6 µM [rising, single point].
`COc1ccccc1C(=O)NNC(=O)C(=O)Nc1ccc(C)cc1`: the AC50 under setting [1] is 4.47 µM [falling, partial curve, poor fit].
As for `CCOc1ccc(C(c2c(C)[nH][nH]c2=O)c2c(C)[nH][nH]c2=O)cc1OC`, under setting [1], the AC50 is 12.6 µM [falling, partial curve, poor fit].
Regarding `CCOCCn1ccc2c(OCC(=O)Nc3cccc(F)c3)cccc2c1=O`, the AC50 under setting [1] was 35.5 µM [falling, partial curve, poor fit].
For the compound `Cc1cc(C)nc(SCc2ccc(Br)cc2)n1`, the AC50 under setting [1] is 8.91 µM [rising, partial curve].
With `CCCOc1ccccc1/C=C1\SC(N2CCCCC2)=NC1=O`, the AC50 under setting [1] was 35.5 µM [falling, single point].
For `O=C(Nc1ccc(Cl)cc1)[C@@H]1[C@@H]2C(=O)N(c3ccc(Cl)cc3Cl)C(=O)[C@@H]2[C@H]2C=CC=NN21`, the AC50 under setting [1] was 0.461 µM [falling, full curve, poor fit].
Regarding `COCCCn1c(N)c(-c2nc3ccccc3n2C)c2nc3ccccc3nc21`, the AC50 reads like this: under setting [1], 10.3 µM [rising, partial curve, poor fit]; under setting [2], 18.4 µM [falling, partial curve, poor fit].
With `Cc1c(-c2cccc(NC(=O)c3ccco3)c2)nc2ncccn12`, the AC50 under setting [1] was 35.5 µM [falling, single point].
In the case of `CCOC(=O)CCN(Cc1sccc1C)S(=O)(=O)c1ccc(F)cc1`, under setting [1], the AC50 was 0.58 µM [falling, full curve, poor fit].
Turning to `COc1ccc(CCn2c(-c3ccco3)nc3nc4ccccc4nc32)cc1OC`, the AC50 under setting [1] was 10 µM [falling, partial curve].
Still for that read-out and setting: then `COc1ccccc1CN1CCNC(=O)C1CC(=O)NCc1c(C)n[nH]c1C` (configuration not stated), with 0.447 µM [falling, partial curve, poor fit].
Consider `c1ccc(CCc2nn3c(-c4ccncc4)nnc3s2)cc1`, for which the AC50 under setting [1] was 0.651 µM [falling, full curve, poor fit].
Turning to `CC(NC(=O)Nc1ccc([N+](=O)[O-])cc1)C(c1ccccc1)N1CCOCC1` (configuration not stated), the AC50 under setting [1] is 2.82 µM [rising, full curve].
`Cc1ccn(CC(=O)N2CCCC(N3CCN(c4ccc(F)cc4)CC3)C2)n1` (configuration not stated): the AC50 under setting [1] is 35.5 µM [rising, single point].
Regarding `Cc1c(-n2c(SCC(C)C)nc3ccccc3c2=O)c(=O)n(-c2ccccc2)n1C`, under setting [1], the AC50 was 11.2 µM [rising, partial curve].
Turning to `Cc1cc(SCC(=O)c2ccccc2)nc(SCC(=O)c2ccccc2)n1`, the AC50 under setting [1] was 35.5 µM [falling, single point].
Same read-out and setting: then `CC(C)n1c(N)c(C#N)c2ccc([N+](=O)[O-])cc2c1=O`, with 1.41 µM [rising, partial curve, poor fit]; and `O=C(NC1CCCC1)c1ccc2nc[nH]c2c1`, with 11.6 µM [rising, partial curve, poor fit].
Still for that read-out and setting: next, `COc1ccc(CN(C)CC(O)COc2ccc(-c3ccccc3)cc2)cc1OC` (configuration not stated): 3.98 µM [rising, full curve, poor fit]; `O=C(N/N=C/c1c(Nc2cccc(C(F)(F)F)c2)nc2ccccn2c1=O)c1ccccc1`: 4.47 µM [rising, full curve, poor fit].
Take `COc1ccc(Cl)cc1NC(=O)N1CCN(C2CCCCC2)CC1`: under setting [1], the AC50 is 11.6 µM [falling, partial curve, poor fit].
On to `COc1ccc(CN2C(=O)/C(=C/c3ccncc3)SC2=S)cc1`, for which the AC50 reads like this: under setting [1], 20.6 µM [falling, single point]; under setting [2], 29.1 µM [falling, single point].
For `Cc1c(Cl)c([N+](=O)[O-])nn1Cc1ccc(C(=O)NN)o1`, the AC50 under setting [1] is 1.58 µM [falling, full curve, poor fit].
Consider `O=C(Nc1ccc(N2CCCC2)cc1)c1ccc2ccccc2c1`, for which the AC50 under setting [1] is 2.59 µM [falling, full curve].
For the compound `C[C@H](NC(=O)c1ncn(C)c1C(=O)N[C@@H](C)c1ccccc1)c1ccccc1`, the AC50 under setting [1] is 29.1 µM [rising, single point].
Regarding `CCN1CCN(CNC(=O)c2cnccn2)CC1`, under setting [1], the AC50 is 6.51 µM [rising, single point].
As for `CCOC(=O)CCc1c(C)nc2cc(-c3ccc(Cl)cc3)[nH]n2c1=O`, the AC50 under setting [1] is 0.0164 µM [falling, full curve, poor fit].
With `O=C(Nc1ccc2c(c1)OCO2)c1ccc(Br)c(S(=O)(=O)N2CCCC2)c1`, the AC50 under setting [1] was 4.61 µM [falling, full curve].
Regarding `COc1ccc(OCCSc2nc(N)cc(N)n2)cc1`, under setting [1], the AC50 was 0.259 µM [rising, full curve, poor fit].
Regarding `O=C(Nc1ccc(C(O)(C(F)(F)F)C(F)(F)F)cc1)c1ccc(Cl)c([N+](=O)[O-])c1`, the AC50 was 20.6 µM [falling, single point] under setting [1] and 25.9 µM [rising, single point] under setting [2].
On to `Clc1ccc(-c2cn3cc(Cl)ccc3n2)cc1`, for which the AC50 under setting [1] is 15.8 µM [falling, single point].
As for `O=C(OCC#CCSc1nnc(-c2ccc(Br)cc2)o1)c1cccs1`, the AC50 under setting [1] is 29.1 µM [rising, single point].
Still for that read-out and setting: then `Cc1cn([C@@H](CCCCNC(=O)OC(C)(C)C)C(=O)NCCCCCCCCCCC(=O)N2CCN(C(=O)OC(C)(C)C)CC2)nn1`, with 29.1 µM [falling, single point].
With `COc1cc(/C=N/N=C(/N)c2nonc2N)cc(Br)c1OCc1ccccc1C`, the AC50 under setting [1] is 14.6 µM [rising, partial curve] and the AC50 under setting [2] is 32.6 µM [falling, partial curve, poor fit].
Take `Fc1cccc(CCN2CCNC[C@@H]2CC2CCCCC2)c1`: the AC50 under setting [1] is 14.6 µM [falling, partial curve, poor fit].
As to `C/C(=N\NC(=S)NCCc1ccccc1)c1cccc(Br)c1`, the AC50 is, setting by setting: under setting [1], 35.5 µM [falling, single point]; under setting [2], 35.5 µM [falling, partial curve, poor fit].
With `CCOc1ccc(-n2ccnc(SCC(=O)Nc3ccc(OC)cc3OC)c2=O)cc1`, the AC50 under setting [1] is 0.326 µM [rising, full curve, poor fit].
`CCCCNc1nnc(SCC(=O)c2c[nH]c3ccccc23)s1`: the AC50 under setting [1] is 29.1 µM [falling, single point].
Turning to `O=C(NCCc1ccccc1)c1ccc(Cl)cc1[N+](=O)[O-]`, under setting [1], the AC50 was 12.6 µM [rising, single point].
Consider `CC1CC(N(C(=O)c2ccc(Cl)cc2)c2ccccc2)c2ccccc2N1C(=O)c1ccco1` (configuration not stated), for which, under setting [1], the AC50 was 16.4 µM [falling, partial curve, poor fit].
The same measure, in the same setting: then `COc1ccccc1-n1cnnc1SCC(=O)c1c[nH]c2ccccc12`, with 2.06 µM [falling, full curve].
